Not every detail of the peptide structures is certain; ends, links or a residue may be inferred.
Tests used:
[1] = system: Mice treated with 5-fluorouracil; assay: Chemotherapy-induced mucositis model (5-fluorouracil); type: in vivo
[2] = system: small intestine; assay: Intestinal growth in normal animals (wet weight of small intestine segments); type: in vivo; details: Normal BDF1 mice, 6 days treatment
[3] = pretreatment before 5-FU 60 mg/kg/day i.p. days 1 to 4, surviving mice

CC[C@H](C)[C@H](NC(=O)[C@H](Cc1ccccc1)NC(=O)[C@H](CC(=O)O)NC(=O)[C@H](CCCNC(=N)N)NC(=O)[C@H](C)NC(=O)[C@H](C)NC(=O)[C@H](CC(C)C)NC(=O)[C@H](CC(N)=O)NC(=O)[C@H](CC(=O)O)NC(=O)[C@H](CC(C)C)NC(=O)[C@@H](NC(=O)[C@@H](NC(=O)[C@H](CC(N)=O)NC(=O)[C@H](CCSC)NC(=O)[C@H](CCC(=O)O)NC(=O)[C@H](CC(=O)O)NC(=O)[C@H](CO)NC(=O)[C@H](Cc1ccccc1)NC(=O)[C@H](CO)NC(=O)CNC(=O)[C@H](CC(=O)O)NC(=O)CNC(=O)[C@@H](N)Cc1c[nH]cn1)[C@@H](C)O)[C@@H](C)CC)C(=O)N[C@@H](CC(N)=O)C(=O)N[C@@H](Cc1c[nH]c2ccccc12)C(=O)N[C@@H](CC(C)C)C(=O)N[C@H](C(=O)N[C@@H](CCC(N)=O)C(=O)N[C@H](C(=O)N[C@@H](CCCCN)C(=O)N[C@H](C(=O)N[C@H](C(=O)N[C@@H](CC(=O)O)C(=O)O)[C@@H](C)O)[C@@H](C)CC)[C@@H](C)O)[C@@H](C)CC [hGLP-2(G2)]
protection against weight loss (in words) ([1]; pretreatment before 5-FU): did not protect against weight loss
Incidence of Hepatic Abcesses (%) [1, 3]: 50%
Incidence of Hepatic Abcesses (animals with abscesses/animals) [1, 3]: 3/6
effect on the wet weight in the gut (in words) [2]: significant effect
